Measured values published in the supplement of paper PMC10849652.
The list shows a part of the results.

Protein sequences, listed by entry. Tags and fused reporters are not part of them. Lines headed by an entry give the natural chain unless they say otherwise; changes in a name come on top.
UniProt Q92769, whole entry, looked up: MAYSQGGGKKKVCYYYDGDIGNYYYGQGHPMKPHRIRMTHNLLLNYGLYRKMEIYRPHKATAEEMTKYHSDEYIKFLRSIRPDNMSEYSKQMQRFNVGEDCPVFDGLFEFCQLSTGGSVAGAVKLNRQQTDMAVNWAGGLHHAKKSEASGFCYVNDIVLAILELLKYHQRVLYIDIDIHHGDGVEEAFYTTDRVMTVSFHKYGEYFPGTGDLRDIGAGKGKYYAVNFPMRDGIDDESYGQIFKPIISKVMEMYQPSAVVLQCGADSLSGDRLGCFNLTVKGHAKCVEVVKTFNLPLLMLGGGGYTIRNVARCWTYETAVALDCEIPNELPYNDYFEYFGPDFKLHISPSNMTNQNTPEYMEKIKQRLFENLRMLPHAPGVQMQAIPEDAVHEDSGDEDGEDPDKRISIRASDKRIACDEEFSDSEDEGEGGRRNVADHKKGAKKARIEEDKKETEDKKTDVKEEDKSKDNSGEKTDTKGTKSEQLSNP
UniProt P46976: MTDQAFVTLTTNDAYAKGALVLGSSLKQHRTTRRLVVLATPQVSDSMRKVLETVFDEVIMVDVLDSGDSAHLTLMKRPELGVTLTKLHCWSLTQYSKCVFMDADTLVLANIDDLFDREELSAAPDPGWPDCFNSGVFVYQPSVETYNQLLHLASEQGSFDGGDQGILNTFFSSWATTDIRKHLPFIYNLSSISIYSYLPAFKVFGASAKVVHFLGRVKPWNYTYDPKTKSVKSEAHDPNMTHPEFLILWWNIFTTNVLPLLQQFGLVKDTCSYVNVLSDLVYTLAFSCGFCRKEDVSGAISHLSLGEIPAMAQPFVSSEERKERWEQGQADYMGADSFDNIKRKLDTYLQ
UniProt Q9BXW7: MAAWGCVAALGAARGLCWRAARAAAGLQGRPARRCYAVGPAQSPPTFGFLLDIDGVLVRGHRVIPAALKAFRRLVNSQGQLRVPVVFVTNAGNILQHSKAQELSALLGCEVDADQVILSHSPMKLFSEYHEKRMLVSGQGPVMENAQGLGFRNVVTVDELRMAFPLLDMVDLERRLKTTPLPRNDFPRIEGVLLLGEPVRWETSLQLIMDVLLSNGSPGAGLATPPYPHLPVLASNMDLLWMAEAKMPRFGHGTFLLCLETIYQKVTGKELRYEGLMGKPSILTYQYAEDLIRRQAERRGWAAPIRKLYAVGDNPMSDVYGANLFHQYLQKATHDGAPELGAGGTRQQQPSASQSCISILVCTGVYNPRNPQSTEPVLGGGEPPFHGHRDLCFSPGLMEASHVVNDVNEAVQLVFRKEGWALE
UniProt Q8WUI4: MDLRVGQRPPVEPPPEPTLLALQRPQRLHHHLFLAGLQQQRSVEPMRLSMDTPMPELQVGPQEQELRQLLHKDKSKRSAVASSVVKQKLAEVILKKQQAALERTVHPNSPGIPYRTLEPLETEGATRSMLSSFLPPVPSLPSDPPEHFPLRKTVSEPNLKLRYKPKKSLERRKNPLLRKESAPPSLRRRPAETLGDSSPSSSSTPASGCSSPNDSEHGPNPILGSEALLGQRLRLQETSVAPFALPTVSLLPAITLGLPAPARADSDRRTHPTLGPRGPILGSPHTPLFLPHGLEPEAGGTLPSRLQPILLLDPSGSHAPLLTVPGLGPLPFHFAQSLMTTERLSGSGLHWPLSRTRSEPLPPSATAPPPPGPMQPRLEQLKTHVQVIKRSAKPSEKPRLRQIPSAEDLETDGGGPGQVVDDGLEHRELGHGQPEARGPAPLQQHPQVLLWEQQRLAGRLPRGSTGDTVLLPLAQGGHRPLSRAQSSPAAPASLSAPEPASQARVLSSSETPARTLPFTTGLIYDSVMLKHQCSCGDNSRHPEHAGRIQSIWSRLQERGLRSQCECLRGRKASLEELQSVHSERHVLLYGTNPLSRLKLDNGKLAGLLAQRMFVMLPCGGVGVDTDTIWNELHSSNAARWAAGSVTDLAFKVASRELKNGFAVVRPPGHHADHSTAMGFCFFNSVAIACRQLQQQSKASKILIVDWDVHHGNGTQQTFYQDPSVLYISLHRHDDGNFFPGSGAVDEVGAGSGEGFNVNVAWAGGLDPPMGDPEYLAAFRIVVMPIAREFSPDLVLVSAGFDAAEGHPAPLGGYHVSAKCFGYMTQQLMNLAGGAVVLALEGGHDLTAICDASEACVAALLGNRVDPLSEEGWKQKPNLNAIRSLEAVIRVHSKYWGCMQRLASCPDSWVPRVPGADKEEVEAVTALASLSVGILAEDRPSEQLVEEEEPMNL
UniProt Q13547, whole entry, looked up: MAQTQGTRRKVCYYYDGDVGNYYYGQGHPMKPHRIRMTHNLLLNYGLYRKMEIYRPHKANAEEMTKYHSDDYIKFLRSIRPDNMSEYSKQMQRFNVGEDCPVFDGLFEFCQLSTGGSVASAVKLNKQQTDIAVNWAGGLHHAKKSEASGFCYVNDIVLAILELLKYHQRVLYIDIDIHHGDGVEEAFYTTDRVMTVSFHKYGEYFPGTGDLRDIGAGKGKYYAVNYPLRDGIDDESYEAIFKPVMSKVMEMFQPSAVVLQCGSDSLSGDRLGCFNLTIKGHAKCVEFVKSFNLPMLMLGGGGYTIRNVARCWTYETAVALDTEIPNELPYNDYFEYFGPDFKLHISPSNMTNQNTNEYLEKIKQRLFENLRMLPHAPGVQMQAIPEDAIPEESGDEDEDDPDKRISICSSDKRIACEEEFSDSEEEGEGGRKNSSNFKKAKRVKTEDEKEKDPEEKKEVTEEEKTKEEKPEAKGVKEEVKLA
UniProt Q12849: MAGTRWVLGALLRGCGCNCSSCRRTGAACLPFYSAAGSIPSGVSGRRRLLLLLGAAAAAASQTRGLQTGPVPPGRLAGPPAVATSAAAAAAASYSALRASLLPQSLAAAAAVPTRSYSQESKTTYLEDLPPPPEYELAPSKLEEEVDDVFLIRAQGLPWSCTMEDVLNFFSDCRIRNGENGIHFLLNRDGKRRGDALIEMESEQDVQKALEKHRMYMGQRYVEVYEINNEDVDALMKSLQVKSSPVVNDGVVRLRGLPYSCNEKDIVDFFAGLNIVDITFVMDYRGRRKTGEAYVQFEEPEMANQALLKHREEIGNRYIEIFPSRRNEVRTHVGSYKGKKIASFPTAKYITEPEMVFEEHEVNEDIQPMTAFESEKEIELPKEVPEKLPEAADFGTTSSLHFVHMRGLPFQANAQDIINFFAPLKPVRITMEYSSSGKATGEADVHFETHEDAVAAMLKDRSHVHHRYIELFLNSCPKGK
UniProt Q7Z4H7: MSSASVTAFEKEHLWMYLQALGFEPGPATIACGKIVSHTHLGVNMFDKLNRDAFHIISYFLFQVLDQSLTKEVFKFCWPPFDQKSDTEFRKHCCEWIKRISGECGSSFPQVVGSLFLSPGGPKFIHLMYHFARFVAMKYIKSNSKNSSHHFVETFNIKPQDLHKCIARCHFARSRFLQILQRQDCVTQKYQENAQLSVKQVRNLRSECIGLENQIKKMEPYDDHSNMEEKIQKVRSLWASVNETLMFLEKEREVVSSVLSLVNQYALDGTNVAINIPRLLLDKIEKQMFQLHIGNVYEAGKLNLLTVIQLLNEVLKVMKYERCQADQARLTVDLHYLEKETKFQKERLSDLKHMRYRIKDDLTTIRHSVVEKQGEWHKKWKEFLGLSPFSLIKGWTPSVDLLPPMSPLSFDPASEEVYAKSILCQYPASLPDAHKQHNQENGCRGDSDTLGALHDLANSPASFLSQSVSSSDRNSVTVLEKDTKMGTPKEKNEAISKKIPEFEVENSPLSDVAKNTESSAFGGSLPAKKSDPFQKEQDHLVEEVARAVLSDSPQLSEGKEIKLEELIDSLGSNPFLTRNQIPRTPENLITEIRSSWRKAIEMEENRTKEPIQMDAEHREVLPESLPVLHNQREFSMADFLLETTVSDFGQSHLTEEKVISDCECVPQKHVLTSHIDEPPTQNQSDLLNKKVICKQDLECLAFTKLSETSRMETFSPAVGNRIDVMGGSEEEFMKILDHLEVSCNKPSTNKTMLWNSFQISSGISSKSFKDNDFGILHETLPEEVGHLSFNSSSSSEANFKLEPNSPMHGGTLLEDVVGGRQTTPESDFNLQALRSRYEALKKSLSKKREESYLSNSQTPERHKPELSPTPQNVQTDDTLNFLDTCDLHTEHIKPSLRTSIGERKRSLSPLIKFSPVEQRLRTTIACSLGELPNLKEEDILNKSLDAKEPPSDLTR
UniProt P00390: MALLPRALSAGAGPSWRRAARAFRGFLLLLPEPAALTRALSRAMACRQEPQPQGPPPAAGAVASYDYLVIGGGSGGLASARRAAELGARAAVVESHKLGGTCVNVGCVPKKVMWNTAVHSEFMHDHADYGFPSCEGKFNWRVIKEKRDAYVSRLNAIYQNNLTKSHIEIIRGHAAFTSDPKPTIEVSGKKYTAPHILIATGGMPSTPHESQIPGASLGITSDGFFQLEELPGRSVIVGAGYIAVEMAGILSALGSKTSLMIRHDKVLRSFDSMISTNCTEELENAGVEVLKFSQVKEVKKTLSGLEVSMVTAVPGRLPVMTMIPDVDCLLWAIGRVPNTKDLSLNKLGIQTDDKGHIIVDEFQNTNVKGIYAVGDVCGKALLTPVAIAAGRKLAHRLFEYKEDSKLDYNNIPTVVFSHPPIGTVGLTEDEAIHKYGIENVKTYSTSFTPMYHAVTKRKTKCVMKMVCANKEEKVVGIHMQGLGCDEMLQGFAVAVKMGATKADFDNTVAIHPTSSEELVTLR
UniProt Q8N442: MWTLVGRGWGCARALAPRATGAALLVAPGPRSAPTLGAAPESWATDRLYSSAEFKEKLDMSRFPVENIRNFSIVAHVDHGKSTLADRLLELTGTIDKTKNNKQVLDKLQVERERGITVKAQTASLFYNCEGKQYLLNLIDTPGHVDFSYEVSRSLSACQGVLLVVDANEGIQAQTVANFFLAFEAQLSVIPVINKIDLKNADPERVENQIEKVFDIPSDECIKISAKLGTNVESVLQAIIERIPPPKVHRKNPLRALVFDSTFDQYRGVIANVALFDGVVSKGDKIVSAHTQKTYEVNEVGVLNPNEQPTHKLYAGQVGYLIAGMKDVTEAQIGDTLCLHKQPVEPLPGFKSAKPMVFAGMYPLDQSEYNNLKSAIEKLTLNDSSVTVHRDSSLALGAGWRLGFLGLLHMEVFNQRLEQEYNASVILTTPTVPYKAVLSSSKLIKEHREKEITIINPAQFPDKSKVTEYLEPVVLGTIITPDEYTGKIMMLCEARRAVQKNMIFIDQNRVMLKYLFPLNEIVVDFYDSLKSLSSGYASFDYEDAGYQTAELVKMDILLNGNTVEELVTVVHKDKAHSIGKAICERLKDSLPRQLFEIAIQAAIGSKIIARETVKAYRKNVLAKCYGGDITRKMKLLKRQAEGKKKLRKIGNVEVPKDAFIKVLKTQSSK
UniProt Q8TAA5: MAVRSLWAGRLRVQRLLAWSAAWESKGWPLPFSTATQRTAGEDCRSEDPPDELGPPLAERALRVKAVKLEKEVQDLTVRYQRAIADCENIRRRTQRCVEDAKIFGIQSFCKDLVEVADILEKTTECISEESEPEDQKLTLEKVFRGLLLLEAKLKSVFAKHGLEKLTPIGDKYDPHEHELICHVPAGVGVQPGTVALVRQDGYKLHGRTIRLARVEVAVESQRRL
UniProt P78417: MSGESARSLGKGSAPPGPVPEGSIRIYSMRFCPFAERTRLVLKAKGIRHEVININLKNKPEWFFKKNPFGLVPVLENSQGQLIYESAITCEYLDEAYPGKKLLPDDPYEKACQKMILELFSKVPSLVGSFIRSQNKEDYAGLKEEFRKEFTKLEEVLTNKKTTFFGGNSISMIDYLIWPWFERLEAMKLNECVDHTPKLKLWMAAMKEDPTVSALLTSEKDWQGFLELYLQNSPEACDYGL
UniProt Q9H6D7: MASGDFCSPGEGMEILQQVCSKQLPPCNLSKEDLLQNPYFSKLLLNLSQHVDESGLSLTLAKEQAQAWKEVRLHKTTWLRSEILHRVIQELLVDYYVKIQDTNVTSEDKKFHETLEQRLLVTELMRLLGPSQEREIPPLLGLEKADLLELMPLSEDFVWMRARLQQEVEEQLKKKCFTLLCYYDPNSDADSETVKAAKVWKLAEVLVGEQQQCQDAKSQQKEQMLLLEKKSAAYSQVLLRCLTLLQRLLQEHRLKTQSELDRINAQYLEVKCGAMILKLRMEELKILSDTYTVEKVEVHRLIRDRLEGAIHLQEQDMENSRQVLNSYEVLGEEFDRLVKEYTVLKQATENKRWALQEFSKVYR
UniProt Q6P1K8: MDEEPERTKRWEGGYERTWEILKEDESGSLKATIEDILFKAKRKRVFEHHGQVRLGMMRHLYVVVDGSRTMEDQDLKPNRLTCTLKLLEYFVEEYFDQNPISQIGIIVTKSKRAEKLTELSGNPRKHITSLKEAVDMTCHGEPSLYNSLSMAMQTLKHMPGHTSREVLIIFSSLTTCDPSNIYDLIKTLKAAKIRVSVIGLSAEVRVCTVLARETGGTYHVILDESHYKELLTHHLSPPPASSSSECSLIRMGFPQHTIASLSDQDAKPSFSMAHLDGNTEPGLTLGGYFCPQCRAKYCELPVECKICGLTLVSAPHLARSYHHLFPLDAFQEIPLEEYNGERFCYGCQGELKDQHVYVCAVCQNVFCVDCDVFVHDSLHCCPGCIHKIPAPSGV

Experiments:
Assay in all cases: log2 fold change, soluble protein after heating vs DMSO (PISA); higher = thermal stabilisation; K562 lysate, 10 uM; active = over 0.2 and 3.5 SD of the protein, either way, in both replicates (recomputed)
[1] = compound: C1=CC=C(C=C1)[C@H](COC2=CC3=C(C=C2)NC(=O)N3)NC(=O)C4=CC=CN(C4=O)CC5=CC(=C(C=C5)F)F
Procedure, shortened: (§1)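 Following dounce homogenisation of K562 pellets in PBS pH 7.4 with 1 mM MgCl2, crude extract at 1 mg/mL protein was incubated for 30 min with 10 μM compound. Aliquots were then heated for 3 min over 48°C-58°C and pooled, NP-40 was added to 0.5% at 4°C, and soluble protein was recovered as the supernatant at 21,000xg for 90 min. Channel-sum-equalised TMTpro 16plex LC-MS/MS quantified this protein. Each value, from duplicates, is a log-two fold change in thermal stability relative to solvent controls.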

[2] = compound: CC1=C(SC2=C1C(=N[C@H](C3=NN=C(N32)C)CC(=O)N)C4=CC=C(C=C4)Cl)C
Procedure, shortened: as §1

[3] = compound: CC1=C2C(=CC=C1)N=C(N(C2=O)C3=CC=CC=C3C)CN4C=NC5=C(N=CN=C54)N
Procedure, shortened: as §1

[4] = compound: Cc1sc2c(c1C)C(c1ccc(Cl)cc1)=N[C@@H](CC(=O)OC(C)(C)C)c1nnc(C)n1-2
Procedure, shortened: as §1

[5] = compound: c1ccc([C@@H]2C[C@H]2NC2CCNCC2)cc1
Procedure, shortened: as §1

| Target | log2 fold change [1] | log2 fold change [2] | log2 fold change [3] | log2 fold change [4] | log2 fold change [5] |
| --- | --- | --- | --- | --- | --- |
| HDAC8 (UniProt Q9BY41) | inactive: 0.076 | inactive: 0.273 | inactive: 0.046 | inactive: -0.02 | inactive: 0.08 |
| HAUS5 (UniProt O94927) | inactive: 0.043 | inactive: 0.02 | inactive: 0.003 | inactive: -0.055 | inactive: 0.089 |
| HDAC2 (UniProt Q92769) | inactive: 0.004 | inactive: 0.002 | inactive: -0.017 | inactive: 0.02 | inactive: -0.004 |
| GYG1 isoform 2 (UniProt P46976) | inactive: 0.067 | inactive: 0.005 | inactive: 0.043 | inactive: -0.021 | inactive: 0.01 |
| GSTT1 (UniProt P30711) | inactive: -0.12 | inactive: -0.017 | inactive: 0.01 | inactive: -0.028 | inactive: 0.033 |
| GSTP1 (UniProt P09211) | inactive: -0.018 | inactive: 0.004 | inactive: -0.003 | inactive: -0.017 | inactive: 0.035 |
| GSN (UniProt P06396) | inactive: 0.003 | inactive: 0.014 | inactive: 0.017 | inactive: -0.011 | inactive: -0.03 |
| GYS1 (UniProt P13807) | inactive: 0.204 | inactive: -0.038 | inactive: 0.027 | inactive: -0.004 | inactive: -0.021 |
| GTPBP3 isoform 2 (UniProt Q969Y2) | inactive: 0.03 | inactive: -0.013 | inactive: 0.118 | inactive: -0.096 | inactive: 0.057 |
| HDHD5 (UniProt Q9BXW7) | inactive: 0 | inactive: 0.071 | inactive: 0.032 | inactive: -0.05 | inactive: -0.012 |
| GPX4 (UniProt P36969) | inactive: 0.018 | inactive: -0.01 | inactive: 0.036 | inactive: -0.03 | inactive: 0.048 |
| GSS (UniProt P48637) | inactive: 0.012 | inactive: -0.017 | inactive: -0.019 | inactive: 0.004 | inactive: 0 |
| HDAC7 isoform 5 (UniProt Q8WUI4) | inactive: 0.017 | inactive: -0.003 | inactive: 0.02 | inactive: -0.015 | inactive: 0.029 |
| GTPBP4 (UniProt Q9BZE4) | inactive: 0.019 | inactive: -0.013 | inactive: -0.004 | inactive: 0.02 | inactive: -0.027 |
| GSTM2 (UniProt P28161) | inactive: -0.007 | inactive: 0.03 | inactive: -0.048 | inactive: -0.037 | inactive: 0.051 |
| GTSE1 (UniProt Q9NYZ3) | inactive: 0.136 | inactive: -0.008 | inactive: 0.031 | inactive: -0.025 | inactive: -0.073 |

Copied from the results shown for reference:

| Target | log2 fold change [1] | log2 fold change [2] | log2 fold change [3] | log2 fold change [4] | log2 fold change [5] |
| --- | --- | --- | --- | --- | --- |
| GSS (UniProt P48637) | inactive: 0.012 | inactive: -0.017 | inactive: -0.019 | inactive: 0.004 | inactive: 0 |
| HDAC7 isoform 5 (UniProt Q8WUI4) | inactive: 0.017 | inactive: -0.003 | inactive: 0.02 | inactive: -0.015 | inactive: 0.029 |

Going on with the list.

| Target | log2 fold change [1] | log2 fold change [2] | log2 fold change [3] | log2 fold change [4] | log2 fold change [5] |
| --- | --- | --- | --- | --- | --- |
| HDAC1 (UniProt Q13547) | inactive: -0.04 | inactive: 0.02 | inactive: 0.001 | inactive: -0.025 | inactive: -0.015 |
| GRSF1 (UniProt Q12849) | inactive: 0.029 | inactive: 0.014 | inactive: 0.007 | inactive: -0.002 | inactive: -0.014 |
| HAUS6 (UniProt Q7Z4H7) | inactive: 0 | inactive: -0.012 | inactive: 0.021 | inactive: 0.005 | inactive: 0.041 |
| GSR isoform 5 (UniProt P00390) | inactive: -0.015 | inactive: 0.021 | inactive: 0.025 | inactive: -0.14 | inactive: -0.453 |
| GUF1 (UniProt Q8N442) | inactive: 0.088 | inactive: -0.071 | inactive: -0.374 | inactive: -0.004 | inactive: 0.009 |
| HEATR1 (UniProt Q9H583) | inactive: -0.079 | inactive: 0.011 | inactive: 0.042 | inactive: -0.032 | inactive: -0.061 |
| GTF2F2 (UniProt P13984) | inactive: -0.003 | inactive: 0.028 | inactive: 0.015 | inactive: 0.026 | inactive: -0.012 |
| GRWD1 (UniProt Q9BQ67) | inactive: 0.056 | inactive: -0.007 | inactive: -0.004 | inactive: -0.015 | inactive: -0.031 |
| GRPEL2 (UniProt Q8TAA5) | inactive: -0.006 | inactive: 0.155 | inactive: -0.001 | inactive: -0.033 | inactive: -0.013 |
| H2AFY (UniProt O75367) | inactive: -0.035 | inactive: 0.045 | inactive: 0.026 | active: 0.296 | inactive: -0.045 |
| GSTO1 (UniProt P78417) | inactive: 0.002 | inactive: 0.006 | inactive: -0.042 | inactive: 0.029 | inactive: 0.022 |
| GTF3C6 (UniProt Q969F1) | inactive: 0.227 | inactive: -0.163 | inactive: 0.04 | inactive: -0.002 | inactive: 0.032 |
| HAUS4 (UniProt Q9H6D7) | inactive: -0.009 | inactive: -0.043 | inactive: 0.019 | inactive: 0.019 | inactive: 0.02 |
| HBS1L (UniProt Q9Y450) | inactive: 0.037 | inactive: -0.015 | inactive: 0.018 | inactive: 0.009 | inactive: 0.02 |
| GTF2H2C (UniProt Q6P1K8) |  |  |  | inactive: -0.025 |  |
